Experimental findings from paper PMC12322490 are described below.

By UniProt entry, the sequences of proteins in these tests, tags left out. Where a name states a change or a piece, a line headed by the entry shows the natural chain unless it says otherwise.
UniProt Q9JKK8: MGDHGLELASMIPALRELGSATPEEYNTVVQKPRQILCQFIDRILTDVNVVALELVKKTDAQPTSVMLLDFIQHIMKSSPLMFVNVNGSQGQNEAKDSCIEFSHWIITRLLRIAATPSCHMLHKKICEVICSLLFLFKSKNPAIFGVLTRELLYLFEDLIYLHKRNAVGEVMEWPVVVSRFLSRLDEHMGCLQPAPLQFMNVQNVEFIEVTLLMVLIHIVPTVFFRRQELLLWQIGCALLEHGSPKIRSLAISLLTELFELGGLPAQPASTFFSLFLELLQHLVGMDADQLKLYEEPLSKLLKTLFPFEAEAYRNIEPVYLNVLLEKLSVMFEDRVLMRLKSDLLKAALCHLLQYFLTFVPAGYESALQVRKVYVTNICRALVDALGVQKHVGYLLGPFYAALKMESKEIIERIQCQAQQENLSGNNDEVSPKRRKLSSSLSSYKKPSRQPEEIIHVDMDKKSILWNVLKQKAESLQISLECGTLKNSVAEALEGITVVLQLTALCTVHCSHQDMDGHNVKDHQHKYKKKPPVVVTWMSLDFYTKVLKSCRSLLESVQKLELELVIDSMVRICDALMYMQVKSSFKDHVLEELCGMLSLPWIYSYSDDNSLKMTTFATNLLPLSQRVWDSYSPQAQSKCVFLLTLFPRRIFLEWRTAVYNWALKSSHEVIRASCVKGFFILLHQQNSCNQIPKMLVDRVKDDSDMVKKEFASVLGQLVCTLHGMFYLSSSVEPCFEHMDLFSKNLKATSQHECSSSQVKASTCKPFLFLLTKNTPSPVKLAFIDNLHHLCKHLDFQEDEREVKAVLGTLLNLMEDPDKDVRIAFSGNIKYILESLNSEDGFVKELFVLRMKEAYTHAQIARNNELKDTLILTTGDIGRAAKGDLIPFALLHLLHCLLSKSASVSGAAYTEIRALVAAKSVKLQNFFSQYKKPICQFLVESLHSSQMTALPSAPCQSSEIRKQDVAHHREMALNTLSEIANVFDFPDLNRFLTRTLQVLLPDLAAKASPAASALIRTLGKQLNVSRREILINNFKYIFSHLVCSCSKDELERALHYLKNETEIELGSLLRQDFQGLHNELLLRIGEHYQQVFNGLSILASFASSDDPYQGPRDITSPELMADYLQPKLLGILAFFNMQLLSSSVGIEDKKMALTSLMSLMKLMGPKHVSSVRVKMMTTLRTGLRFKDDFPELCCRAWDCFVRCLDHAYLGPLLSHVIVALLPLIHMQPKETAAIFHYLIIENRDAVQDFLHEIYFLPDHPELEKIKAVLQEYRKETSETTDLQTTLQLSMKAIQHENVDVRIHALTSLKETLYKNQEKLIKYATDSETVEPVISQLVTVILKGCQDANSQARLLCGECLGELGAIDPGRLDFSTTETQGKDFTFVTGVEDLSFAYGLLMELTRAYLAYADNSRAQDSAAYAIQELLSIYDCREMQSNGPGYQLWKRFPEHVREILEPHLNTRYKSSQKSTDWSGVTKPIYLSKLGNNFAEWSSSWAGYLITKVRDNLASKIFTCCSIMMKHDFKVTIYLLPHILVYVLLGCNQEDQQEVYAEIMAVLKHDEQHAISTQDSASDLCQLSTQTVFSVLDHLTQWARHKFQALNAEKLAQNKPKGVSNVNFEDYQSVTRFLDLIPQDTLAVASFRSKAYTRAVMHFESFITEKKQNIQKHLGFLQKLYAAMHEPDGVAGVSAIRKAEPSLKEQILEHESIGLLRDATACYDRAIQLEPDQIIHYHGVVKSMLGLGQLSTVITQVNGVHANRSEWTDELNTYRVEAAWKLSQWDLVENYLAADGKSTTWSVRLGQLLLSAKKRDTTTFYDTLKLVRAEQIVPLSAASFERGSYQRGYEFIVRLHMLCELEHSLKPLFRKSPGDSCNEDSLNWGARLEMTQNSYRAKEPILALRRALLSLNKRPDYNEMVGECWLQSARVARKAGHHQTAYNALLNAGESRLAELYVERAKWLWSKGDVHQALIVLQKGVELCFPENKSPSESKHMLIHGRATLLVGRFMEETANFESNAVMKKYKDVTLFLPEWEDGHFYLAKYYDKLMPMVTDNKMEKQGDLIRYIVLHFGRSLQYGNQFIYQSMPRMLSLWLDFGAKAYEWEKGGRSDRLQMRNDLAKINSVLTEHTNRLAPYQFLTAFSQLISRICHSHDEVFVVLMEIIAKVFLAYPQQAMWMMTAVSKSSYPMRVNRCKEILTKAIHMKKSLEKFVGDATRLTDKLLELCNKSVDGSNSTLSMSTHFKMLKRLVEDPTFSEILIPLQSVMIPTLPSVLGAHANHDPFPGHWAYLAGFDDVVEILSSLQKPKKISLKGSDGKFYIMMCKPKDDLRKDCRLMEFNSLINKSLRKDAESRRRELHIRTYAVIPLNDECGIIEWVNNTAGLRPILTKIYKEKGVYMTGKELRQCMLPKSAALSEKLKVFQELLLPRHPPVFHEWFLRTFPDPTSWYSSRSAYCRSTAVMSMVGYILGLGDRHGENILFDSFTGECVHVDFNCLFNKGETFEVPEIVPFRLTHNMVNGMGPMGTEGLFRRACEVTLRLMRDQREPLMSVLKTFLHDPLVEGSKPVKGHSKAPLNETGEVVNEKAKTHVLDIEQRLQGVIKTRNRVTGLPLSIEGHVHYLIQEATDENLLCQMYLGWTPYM

Results are given in words; binding and its absence hold for the method and conditions named. Binding seen in cells or lysates may run through a third protein. Some binding calls cover weakened binding; strength is not graded here.

The target in assay [1] is T1, autophagy related 13 (mouse (endogenous in primary Schwann cells)) (UniProt Q91YI1).
T1 sequence: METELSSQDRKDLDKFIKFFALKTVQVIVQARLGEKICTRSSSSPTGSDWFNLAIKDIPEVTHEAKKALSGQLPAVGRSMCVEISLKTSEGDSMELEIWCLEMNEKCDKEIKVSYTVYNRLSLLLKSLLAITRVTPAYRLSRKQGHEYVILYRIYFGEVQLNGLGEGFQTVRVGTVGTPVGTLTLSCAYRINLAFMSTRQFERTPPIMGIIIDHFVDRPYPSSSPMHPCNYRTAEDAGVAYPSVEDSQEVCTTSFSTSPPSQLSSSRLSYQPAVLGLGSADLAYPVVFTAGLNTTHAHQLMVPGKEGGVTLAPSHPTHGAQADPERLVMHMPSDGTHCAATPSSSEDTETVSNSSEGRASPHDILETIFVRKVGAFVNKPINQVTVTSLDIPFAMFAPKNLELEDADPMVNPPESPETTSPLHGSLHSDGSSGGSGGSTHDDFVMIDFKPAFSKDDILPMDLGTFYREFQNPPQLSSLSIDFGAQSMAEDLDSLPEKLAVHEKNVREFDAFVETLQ
In words: co-IP; lysates of NR1-deficient and control primary Schwann cells cultured in glucose starvation medium (SD-G) for 0 and 24 h; immunoprecipitated with anti-ATR and blotted with anti-Atg13, and immunoprecipitated with anti-Atg13 and blotted with anti-ATR.

The target in assay [2] is ataxia telangiectasia-mutated and Rad3-related protein (mouse (endogenous in primary Schwann cells)) (UniProt Q9JKK8). Described as above.

Consider “ataxia telangiectasia-mutated and Rad3-related protein (from UniProt Q9JKK8 1-2635)”, for which the binding entry in assay [1] is reported as “binds”.

B1: autophagy related 13 (protein, UniProt Q91YI1 1-516)
chain: T1 sequence
Regarding B1, in assay [2], the binding entry is given as “binds”.
